Reference: the supplement of paper PMC10849652
Some of the results follow.

Sequences of proteins named here, by UniProt entry; tags and fusion partners are left off. A change or cut given only in a name is not applied to a line headed by its entry.
UniProt P02452, whole entry, looked up: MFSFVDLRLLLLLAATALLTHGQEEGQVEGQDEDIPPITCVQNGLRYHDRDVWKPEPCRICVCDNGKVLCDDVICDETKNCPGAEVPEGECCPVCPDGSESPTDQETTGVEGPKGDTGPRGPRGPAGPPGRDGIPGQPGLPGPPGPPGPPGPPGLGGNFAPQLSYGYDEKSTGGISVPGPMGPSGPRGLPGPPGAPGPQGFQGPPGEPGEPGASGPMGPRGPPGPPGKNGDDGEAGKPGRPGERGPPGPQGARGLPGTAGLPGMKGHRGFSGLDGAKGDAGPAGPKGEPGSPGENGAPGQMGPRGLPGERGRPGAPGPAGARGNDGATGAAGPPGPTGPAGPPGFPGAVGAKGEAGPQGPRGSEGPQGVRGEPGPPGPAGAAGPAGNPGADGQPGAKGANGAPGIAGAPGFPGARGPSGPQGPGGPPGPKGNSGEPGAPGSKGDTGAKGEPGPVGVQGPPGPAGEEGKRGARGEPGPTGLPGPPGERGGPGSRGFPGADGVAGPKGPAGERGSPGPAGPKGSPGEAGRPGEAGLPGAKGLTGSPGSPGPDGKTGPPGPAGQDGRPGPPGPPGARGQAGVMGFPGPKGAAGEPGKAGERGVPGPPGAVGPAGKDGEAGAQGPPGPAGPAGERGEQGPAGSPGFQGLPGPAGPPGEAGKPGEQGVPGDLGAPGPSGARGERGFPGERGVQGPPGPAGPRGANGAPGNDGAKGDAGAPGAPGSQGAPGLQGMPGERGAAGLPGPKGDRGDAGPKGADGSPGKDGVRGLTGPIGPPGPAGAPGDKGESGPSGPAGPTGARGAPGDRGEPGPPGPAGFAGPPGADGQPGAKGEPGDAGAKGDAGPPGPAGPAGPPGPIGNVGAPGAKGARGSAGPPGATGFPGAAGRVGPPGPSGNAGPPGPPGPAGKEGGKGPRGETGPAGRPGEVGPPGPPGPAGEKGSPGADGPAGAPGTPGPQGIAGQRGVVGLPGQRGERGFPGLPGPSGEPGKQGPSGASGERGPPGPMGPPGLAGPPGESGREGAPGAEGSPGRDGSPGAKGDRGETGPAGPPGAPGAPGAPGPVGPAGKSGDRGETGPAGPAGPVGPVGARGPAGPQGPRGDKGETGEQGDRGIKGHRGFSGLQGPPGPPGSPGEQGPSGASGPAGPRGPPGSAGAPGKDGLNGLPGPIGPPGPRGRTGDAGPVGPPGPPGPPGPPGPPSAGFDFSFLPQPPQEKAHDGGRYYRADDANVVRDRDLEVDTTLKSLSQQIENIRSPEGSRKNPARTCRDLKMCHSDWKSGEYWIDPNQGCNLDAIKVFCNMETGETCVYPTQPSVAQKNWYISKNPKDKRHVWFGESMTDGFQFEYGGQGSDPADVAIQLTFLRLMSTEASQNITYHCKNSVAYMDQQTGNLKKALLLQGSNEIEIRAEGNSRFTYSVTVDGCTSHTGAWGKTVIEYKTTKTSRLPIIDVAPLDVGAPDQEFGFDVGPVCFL
UniProt Q8WXC6: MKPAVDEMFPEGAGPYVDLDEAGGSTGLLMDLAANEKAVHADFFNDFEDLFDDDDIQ
UniProt P12111: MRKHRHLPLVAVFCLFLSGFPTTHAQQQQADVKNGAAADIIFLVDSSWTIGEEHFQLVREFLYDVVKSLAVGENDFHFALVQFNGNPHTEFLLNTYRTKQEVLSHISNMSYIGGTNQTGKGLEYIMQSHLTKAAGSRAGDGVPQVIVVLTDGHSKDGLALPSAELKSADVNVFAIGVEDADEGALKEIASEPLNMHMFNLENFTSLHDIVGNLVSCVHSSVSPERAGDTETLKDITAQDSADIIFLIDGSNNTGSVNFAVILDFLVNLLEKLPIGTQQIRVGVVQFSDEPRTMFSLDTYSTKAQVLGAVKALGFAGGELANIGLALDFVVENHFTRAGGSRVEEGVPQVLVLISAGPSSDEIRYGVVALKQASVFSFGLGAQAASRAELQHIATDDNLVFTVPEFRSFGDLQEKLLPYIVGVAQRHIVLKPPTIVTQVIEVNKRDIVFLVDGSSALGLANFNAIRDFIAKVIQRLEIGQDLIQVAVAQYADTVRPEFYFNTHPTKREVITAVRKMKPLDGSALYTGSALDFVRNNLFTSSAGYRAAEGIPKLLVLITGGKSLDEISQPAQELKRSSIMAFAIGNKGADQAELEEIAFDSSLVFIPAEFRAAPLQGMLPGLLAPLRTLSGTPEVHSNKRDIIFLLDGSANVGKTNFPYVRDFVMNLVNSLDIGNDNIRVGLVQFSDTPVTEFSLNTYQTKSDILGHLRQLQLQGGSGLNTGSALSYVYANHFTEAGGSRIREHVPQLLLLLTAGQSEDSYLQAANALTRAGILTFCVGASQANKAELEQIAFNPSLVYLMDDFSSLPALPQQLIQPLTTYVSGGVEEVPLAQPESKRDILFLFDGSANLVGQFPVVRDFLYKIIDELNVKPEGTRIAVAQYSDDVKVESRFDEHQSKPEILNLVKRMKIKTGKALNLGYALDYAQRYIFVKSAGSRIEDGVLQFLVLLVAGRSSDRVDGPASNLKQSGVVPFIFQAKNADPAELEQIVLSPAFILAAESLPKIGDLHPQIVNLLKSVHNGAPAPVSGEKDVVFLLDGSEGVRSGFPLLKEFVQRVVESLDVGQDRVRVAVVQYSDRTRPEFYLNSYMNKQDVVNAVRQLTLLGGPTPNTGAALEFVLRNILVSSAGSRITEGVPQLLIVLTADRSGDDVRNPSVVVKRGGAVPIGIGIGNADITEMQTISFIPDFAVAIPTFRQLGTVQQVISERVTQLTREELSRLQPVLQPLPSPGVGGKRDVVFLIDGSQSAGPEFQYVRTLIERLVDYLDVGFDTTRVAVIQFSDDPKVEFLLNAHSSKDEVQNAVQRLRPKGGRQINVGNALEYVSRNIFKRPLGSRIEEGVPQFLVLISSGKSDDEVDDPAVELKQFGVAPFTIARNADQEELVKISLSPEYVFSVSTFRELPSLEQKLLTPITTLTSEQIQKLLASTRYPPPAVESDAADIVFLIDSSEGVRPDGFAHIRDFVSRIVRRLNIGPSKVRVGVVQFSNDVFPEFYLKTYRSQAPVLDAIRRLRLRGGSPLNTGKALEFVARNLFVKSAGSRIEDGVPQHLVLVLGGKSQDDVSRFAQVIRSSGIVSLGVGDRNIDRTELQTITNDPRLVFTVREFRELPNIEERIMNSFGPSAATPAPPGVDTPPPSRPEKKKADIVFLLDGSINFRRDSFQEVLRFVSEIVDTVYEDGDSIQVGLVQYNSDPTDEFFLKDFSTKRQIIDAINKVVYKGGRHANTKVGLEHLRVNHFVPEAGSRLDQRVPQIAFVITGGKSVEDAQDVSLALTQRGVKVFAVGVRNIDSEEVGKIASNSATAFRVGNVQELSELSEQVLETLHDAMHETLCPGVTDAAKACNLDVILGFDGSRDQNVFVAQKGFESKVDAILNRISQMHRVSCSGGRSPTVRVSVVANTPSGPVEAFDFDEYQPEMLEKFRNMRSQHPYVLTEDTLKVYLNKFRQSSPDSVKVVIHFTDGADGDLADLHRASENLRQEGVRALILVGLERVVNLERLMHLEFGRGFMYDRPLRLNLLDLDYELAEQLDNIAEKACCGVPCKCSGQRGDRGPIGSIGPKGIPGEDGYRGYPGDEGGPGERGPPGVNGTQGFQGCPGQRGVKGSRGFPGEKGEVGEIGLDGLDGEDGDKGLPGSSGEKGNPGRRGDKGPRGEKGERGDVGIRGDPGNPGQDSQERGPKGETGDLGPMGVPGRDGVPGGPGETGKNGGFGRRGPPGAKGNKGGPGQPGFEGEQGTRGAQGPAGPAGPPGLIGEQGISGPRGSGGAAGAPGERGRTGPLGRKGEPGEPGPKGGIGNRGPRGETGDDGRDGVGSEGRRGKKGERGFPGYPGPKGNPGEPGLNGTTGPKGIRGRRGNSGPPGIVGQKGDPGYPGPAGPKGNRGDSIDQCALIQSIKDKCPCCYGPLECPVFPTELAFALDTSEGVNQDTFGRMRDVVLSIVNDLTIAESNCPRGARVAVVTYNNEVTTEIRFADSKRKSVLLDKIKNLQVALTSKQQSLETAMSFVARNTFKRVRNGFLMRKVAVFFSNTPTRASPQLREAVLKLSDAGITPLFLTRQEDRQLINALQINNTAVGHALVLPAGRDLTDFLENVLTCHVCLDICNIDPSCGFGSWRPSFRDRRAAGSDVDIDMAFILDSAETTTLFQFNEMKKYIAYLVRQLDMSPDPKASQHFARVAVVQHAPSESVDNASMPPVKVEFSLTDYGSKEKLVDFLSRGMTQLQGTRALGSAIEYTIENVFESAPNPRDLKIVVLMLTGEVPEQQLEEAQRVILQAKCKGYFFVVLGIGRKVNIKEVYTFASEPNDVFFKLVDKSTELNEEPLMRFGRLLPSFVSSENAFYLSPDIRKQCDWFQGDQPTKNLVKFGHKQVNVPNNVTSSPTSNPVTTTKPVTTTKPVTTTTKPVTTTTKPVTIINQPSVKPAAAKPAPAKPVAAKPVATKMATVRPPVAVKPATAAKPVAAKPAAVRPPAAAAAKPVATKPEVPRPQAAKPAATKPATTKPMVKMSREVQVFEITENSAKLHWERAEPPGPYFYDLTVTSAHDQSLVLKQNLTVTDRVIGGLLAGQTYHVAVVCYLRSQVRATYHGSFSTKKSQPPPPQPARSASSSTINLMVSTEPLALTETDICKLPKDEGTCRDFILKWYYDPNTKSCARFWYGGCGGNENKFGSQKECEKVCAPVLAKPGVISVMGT
UniProt Q14061: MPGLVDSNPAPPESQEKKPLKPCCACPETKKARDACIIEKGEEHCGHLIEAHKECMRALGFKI
UniProt Q05707: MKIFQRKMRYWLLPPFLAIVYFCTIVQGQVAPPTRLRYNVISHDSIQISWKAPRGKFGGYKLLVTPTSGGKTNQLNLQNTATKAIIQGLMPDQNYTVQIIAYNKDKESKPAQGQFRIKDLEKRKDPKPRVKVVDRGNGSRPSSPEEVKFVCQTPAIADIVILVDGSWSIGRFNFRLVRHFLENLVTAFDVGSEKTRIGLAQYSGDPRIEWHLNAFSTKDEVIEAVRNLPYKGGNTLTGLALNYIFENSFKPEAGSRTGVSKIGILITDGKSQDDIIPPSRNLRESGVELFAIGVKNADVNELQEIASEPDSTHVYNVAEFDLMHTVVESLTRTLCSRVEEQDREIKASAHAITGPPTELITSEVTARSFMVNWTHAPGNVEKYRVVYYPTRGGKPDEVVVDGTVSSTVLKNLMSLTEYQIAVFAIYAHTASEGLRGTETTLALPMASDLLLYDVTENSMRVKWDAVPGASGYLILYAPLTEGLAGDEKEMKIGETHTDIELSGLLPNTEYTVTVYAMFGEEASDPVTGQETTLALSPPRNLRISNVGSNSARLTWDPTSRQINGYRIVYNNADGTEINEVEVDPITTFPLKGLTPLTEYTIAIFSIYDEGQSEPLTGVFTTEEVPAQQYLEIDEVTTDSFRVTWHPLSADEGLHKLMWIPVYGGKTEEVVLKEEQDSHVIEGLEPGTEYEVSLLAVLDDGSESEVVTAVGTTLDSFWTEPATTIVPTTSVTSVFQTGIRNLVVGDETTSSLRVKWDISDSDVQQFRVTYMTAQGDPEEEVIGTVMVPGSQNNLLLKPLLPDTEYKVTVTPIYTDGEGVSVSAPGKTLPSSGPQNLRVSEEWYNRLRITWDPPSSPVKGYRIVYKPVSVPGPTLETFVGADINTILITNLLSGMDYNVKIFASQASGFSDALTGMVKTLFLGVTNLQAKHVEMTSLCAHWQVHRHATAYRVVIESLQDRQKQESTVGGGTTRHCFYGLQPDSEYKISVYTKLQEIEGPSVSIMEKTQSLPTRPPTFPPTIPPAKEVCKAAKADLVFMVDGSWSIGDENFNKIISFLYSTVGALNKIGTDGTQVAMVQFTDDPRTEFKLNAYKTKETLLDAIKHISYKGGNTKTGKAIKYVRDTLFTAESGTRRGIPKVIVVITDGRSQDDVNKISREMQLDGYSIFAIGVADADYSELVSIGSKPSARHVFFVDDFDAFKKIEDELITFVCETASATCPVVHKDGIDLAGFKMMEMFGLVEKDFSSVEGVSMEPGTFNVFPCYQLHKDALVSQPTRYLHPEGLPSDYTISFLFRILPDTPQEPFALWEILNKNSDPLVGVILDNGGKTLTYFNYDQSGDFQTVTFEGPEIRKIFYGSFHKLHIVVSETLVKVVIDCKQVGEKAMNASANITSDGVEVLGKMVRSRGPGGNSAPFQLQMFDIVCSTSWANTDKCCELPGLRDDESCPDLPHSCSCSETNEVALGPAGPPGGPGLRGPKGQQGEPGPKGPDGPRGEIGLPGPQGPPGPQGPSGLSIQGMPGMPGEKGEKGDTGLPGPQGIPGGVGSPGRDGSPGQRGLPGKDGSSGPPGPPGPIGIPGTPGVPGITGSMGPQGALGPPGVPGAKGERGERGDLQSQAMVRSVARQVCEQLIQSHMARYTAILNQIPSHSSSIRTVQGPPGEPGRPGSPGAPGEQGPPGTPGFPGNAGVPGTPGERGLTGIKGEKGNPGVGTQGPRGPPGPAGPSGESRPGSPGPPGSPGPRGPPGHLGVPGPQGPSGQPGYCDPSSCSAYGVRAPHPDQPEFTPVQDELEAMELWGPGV

Tests used:
Test in all cases: log2 fold change, soluble protein after heating vs DMSO (PISA); higher = thermal stabilisation; K562 lysate, 10 uM; active = over 0.2 and 3.5 SD of the protein, either way, in both replicates (recomputed)
[1] = compound: C#Cc1cccc(Nc2ncnc3cc(OCCOC)c(OCCOC)cc23)c1 [erlotinib]
Procedure, shortened: (§1)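 A 30 min treatment with 10 μM compound was applied to crude K562 extract at 1 mg/mL protein in PBS pH 7.4 with 1 mM MgCl2. Heating for 3 min spanned 48°C-58°C, after which aliquots were pooled, adjusted to 0.5% NP-40 at 4°C and spun at 21,000xg for 90 min. TMTpro 16plex LC-MS/MS of the supernatant, with channel sums equalised, gave values recorded as log-two fold change in thermal stability against solvent controls, from duplicates.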

[2] = compound: C1=CC(=CC=C1C2=NC3=C(N2)C=C(C=C3)C(=O)N)OC4=CC=C(C=C4)Cl
Procedure, shortened: as §1

[3] = compound: CC(C)C1=C2N=C(C=C(N2N=C1)NCC3=CC=CC=C3)NCCCCCCN
Procedure, shortened: as §1

[4] = compound: C/C(=N\NC(=O)C1=CC(=CC=C1)S(=O)(=O)N2CCOCC2)/C3=C(C=CC(=C3)Cl)O
Procedure, shortened: as §1

[5] = compound: C1=CC2=C(C=CC(=C2)/C=C\3/C(=O)NC(=NCC4=CC=CS4)S3)N=C1
Procedure, shortened: as §1

[6] = compound: C1=CC2=NC=CN=C2C=C1/C=C/3\C(=O)NC(=O)S3
Procedure, shortened: as §1

[7] = compound: C1=CC=C(C=C1)C2=NC(=C(N2)C3=CC=NC=C3)C4=CC(=C(C=C4)Cl)O
Procedure, shortened: as §1

[8] = compound: C1=CC=C2C(=C1)C3=NNC4=CC=CC(=C43)C2=O
Procedure, shortened: as §1

[9] = compound: C1CCN(C1)C(=O)NC2=CC=CC(=C2)NC3=NC=C(C(=N3)NCCC4=CN=CN4)Br
Procedure, shortened: as §1

[10] = compound: C1CN(CCC1(CC2=CC=C(C=C2)Cl)N)C3=NC=NC4=C3C=CN4
Procedure, shortened: as §1

[11] = compound: C1COCCN1CCN2C3=CC=CC=C3N=C2NC(=O)C4=CC(=CC=C4)[N+](=O)[O-] [IRAK-1-4 Inhibitor I]
Procedure, shortened: as §1

[12] = compound: C=CC(=O)N1CCC[C@@H](n2nc(-c3ccc(Oc4ccccc4)cc3)c3c(N)ncnc32)C1 [ibrutinib]
Procedure, shortened: as §1

[13] = compound: CC(=O)c1cnc2ccc(-c3cc(Cl)c(O)c(Cl)c3)nc2c1N[C@H]1CC[C@H](CN(C)C)CC1
Procedure, shortened: as §1

[14] = compound: CC(C)(C)Cn1c(N)nc2ccc(-c3[nH]c(C(C)(C)C)nc3-c3ccc(F)cc3)nc21 [ralimetinib]
Procedure, shortened: as §1

[15] = compound: CC(C)(O)CC(=O)NCCn1ccc2ncnc(Nc3ccc(Oc4cccc(C(F)(F)F)c4)c(Cl)c3)c21
Procedure, shortened: as §1

[16] = compound: CC1=C(C2=C(C=C1)C(=O)C3=CC=CC=C3N2CCCN)C
Procedure, shortened: as §1

[17] = compound: CC1=C(C=C(C=C1)NC(=O)C2=CC(=CC=C2)C(C)(C)C#N)NC3=CC4=C(C=C3)N=CN(C4=O)C
Procedure, shortened: as §1

[18] = compound: CC1=C(C=C(C=C1)NC(=O)C2=CC(=CC=C2)N(C)C)NC(=O)C3=CC=C(C=C3)O
Procedure, shortened: as §1

[19] = compound: CC1=CC=C(C=C1)SC2=C3C=C(SC3=CN=C2)C(=O)N
Procedure, shortened: as §1

[20] = compound: CC1=C(C(CC(=O)N1)C2=CC=C(C=C2)C(F)(F)F)C(=O)NC3=C(C=C4C(=C3)C=NN4)F
Procedure, shortened: as §1

| Target | log2 fold change [1] | log2 fold change [2] | log2 fold change [3] | log2 fold change [4] | log2 fold change [5] | log2 fold change [6] | log2 fold change [7] | log2 fold change [8] | log2 fold change [9] | log2 fold change [10] | log2 fold change [11] | log2 fold change [12] | log2 fold change [13] | log2 fold change [14] | log2 fold change [15] | log2 fold change [16] | log2 fold change [17] | log2 fold change [18] | log2 fold change [19] | log2 fold change [20] |
| --- | --- | --- | --- | --- | --- | --- | --- | --- | --- | --- | --- | --- | --- | --- | --- | --- | --- | --- | --- | --- |
| COL1A1 (UniProt P02452) | inactive: 0.041 | inactive: 0.085 | inactive: 0.001 |  |  |  |  |  |  |  |  |  |  |  |  |  |  |  |  |  |
| CNOT4 isoform 9 (UniProt O95628) | inactive: 0 | inactive: 0.015 | inactive: -0.003 | inactive: 0.005 | inactive: -0.04 | inactive: 0 | inactive: -0.105 | inactive: 0.015 | inactive: 0.003 | inactive: -0.013 | inactive: 0.054 | inactive: 0.052 | inactive: -0.019 | inactive: 0.043 | inactive: -0.084 | inactive: 0.032 | inactive: -0.138 | inactive: -0.02 | inactive: 0.013 |  |
| COPS9 (UniProt Q8WXC6) | inactive: -0.01 | inactive: -0.362 | inactive: 0.173 |  |  |  | inactive: 0.081 |  |  |  | inactive: -0.371 |  | inactive: -0.059 | inactive: 0.146 | inactive: -0.213 |  |  | inactive: 0.172 | inactive: -0.184 |  |
| COX14 (UniProt Q96I36) | inactive: -0.021 | inactive: -0.013 | inactive: 0.018 |  |  |  |  |  |  |  |  |  | inactive: -0.001 |  |  |  | inactive: -0.088 |  | inactive: -0.033 | inactive: -0.047 |
| CNOT2 (UniProt F8VRS8) | inactive: 0.307 | inactive: 0.101 | inactive: -0.001 |  |  |  |  |  |  |  |  |  |  |  |  |  |  |  |  |  |
| COL12A1 (UniProt Q99715) | inactive: -0.016 | inactive: 0.01 | inactive: 0.024 | inactive: -0.009 | inactive: -0.008 |  |  | inactive: -0.053 | inactive: 0.059 | inactive: 0.065 |  |  | inactive: 0.72 |  |  | inactive: -0.224 | active: 1.57 |  | inactive: 0.005 |  |
| CPLX1 (UniProt O14810) |  |  |  | inactive: -0.059 | inactive: 0.062 |  | inactive: 0.012 | inactive: 0.114 | inactive: 0.012 | inactive: -0.048 | inactive: 0.027 |  | inactive: -0.071 | inactive: 0.079 | inactive: -0.139 | active: 0.874 |  | inactive: 0.037 | inactive: 0.119 |  |
| COL6A3 (UniProt P12111) | inactive: -0.101 | inactive: 0.14 | inactive: 0.047 |  |  | inactive: -0.232 | inactive: -0.108 |  |  |  | inactive: -0.071 | inactive: -0.087 |  | inactive: 0.174 | inactive: -0.132 | inactive: -0.099 | inactive: -0.021 | active: -0.54 |  | inactive: -0.066 |
| COMMD3-BMI1 (UniProt R4GMX3) | inactive: -0.057 | inactive: 0.201 | inactive: 0.075 |  |  | inactive: -0.115 | inactive: 0.022 |  | inactive: -0.114 | inactive: 0.039 | inactive: -0.141 | inactive: 0.171 | inactive: 0.015 | inactive: 0.019 | inactive: -0.046 | inactive: -0.065 | inactive: 0.054 | inactive: 0.01 | inactive: -0.055 | inactive: -0.004 |
| CNTRL (UniProt Q7Z7A1) | inactive: -0.003 | inactive: 0.032 | inactive: 0.01 | inactive: -0.076 | inactive: -0.089 | inactive: -0.013 | inactive: 0.005 | inactive: -0.104 | inactive: -0.011 | inactive: 0.003 | inactive: 0.015 | inactive: -0.023 |  | inactive: 0.007 | inactive: -0.01 | inactive: -0.005 | inactive: 0.01 | inactive: 0.019 |  | inactive: 0.015 |
| CNOT7 (UniProt H0YBT3) |  |  |  |  |  |  | inactive: -0.197 |  |  |  | inactive: 0.19 |  |  | inactive: -0.101 | inactive: -0.059 |  | inactive: -0.026 | inactive: 0.074 |  |  |
| COP1 (UniProt Q8NHY2) | inactive: -0.113 | inactive: -0.044 | inactive: 0.169 |  |  |  | inactive: 0.022 |  |  |  | inactive: 0.004 |  | inactive: -0.041 | inactive: 0.039 | inactive: -0.053 | inactive: 0.036 | inactive: -0.009 | inactive: -0.085 | inactive: 0.027 | inactive: -0.06 |
| CPTP (UniProt Q5TA50) | inactive: 0 | inactive: 0.104 | inactive: 0.001 | inactive: 0.061 | inactive: 0.011 |  | inactive: -0.045 | inactive: -0.002 | inactive: 0.062 | inactive: 0 | inactive: 0.034 |  |  | inactive: 0.031 | inactive: -0.12 | inactive: -0.138 | inactive: -0.023 | inactive: 0.08 |  | inactive: 0.106 |
| COA5 (UniProt Q86WW8) | inactive: -0.063 | inactive: 0.057 | inactive: 0 | inactive: 0.014 | inactive: -0.055 | inactive: 0.07 | inactive: -0.081 | inactive: 0.153 | inactive: -0.015 | inactive: -0.041 | inactive: 0.137 | inactive: 0.005 |  | inactive: 0.016 | inactive: -0.13 | inactive: 0.02 | inactive: 0.018 | inactive: 0.052 |  |  |
| COX17 (UniProt Q14061) | inactive: 0.063 | inactive: -0.002 | inactive: -0.069 |  |  |  |  |  |  |  |  |  | inactive: -0.041 |  |  |  | inactive: -0.187 |  | inactive: 0.042 | inactive: 0.031 |
| COX10 (UniProt Q12887) |  |  |  |  |  |  | inactive: 0.035 |  | inactive: 0.093 | inactive: -0.098 | inactive: -0.092 |  |  | inactive: -0.04 | inactive: 0.037 | inactive: -0.19 | inactive: 0.092 | inactive: -0.02 |  |  |
| COL14A1 (UniProt Q05707) | inactive: -0.025 | inactive: -0.01 | inactive: 0.029 | inactive: 0.032 | inactive: -0.033 | inactive: 0.018 | inactive: 0.069 | inactive: 0.029 |  |  | inactive: 0.104 | inactive: -0.127 | inactive: -0.023 | inactive: -0.118 | inactive: -0.123 | inactive: 0.033 | inactive: 0.024 | inactive: 0.05 | inactive: -0.021 | inactive: -0.092 |
| COLEC11 isoform 10 (UniProt Q9BWP8) | inactive: -0.126 | inactive: -0.15 | inactive: 0 | inactive: 0.013 | inactive: 0.087 | inactive: -0.008 | inactive: -0.109 | inactive: 0.112 | inactive: -0.03 | inactive: -0.034 | inactive: -0.053 | inactive: 0.119 |  | inactive: 0.071 | inactive: 0.006 | inactive: 0 |  | inactive: 0.016 |  |  |
